According to PMC7887190:
Residue numbers refer to the chain shown, from its start. Names and notes keep the numbering of the source. Results are given in words; binding and its absence hold for the method and conditions named. In cells and extracts the contact can be indirect. Some entries that bind do so weakly or less than the wild type.

Protein sequences, listed by entry. Tags and fused reporters are not part of them.
UniProt P67809: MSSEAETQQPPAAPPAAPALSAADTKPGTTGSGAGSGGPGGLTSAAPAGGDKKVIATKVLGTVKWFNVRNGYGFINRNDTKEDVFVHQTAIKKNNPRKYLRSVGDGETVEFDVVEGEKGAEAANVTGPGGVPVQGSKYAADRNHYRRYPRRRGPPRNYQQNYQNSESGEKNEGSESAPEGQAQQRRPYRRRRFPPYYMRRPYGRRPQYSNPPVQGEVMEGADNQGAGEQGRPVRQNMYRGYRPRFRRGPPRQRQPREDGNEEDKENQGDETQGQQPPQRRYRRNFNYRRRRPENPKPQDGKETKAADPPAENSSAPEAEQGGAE

B1: wild-type WAVE3 (WASF3) (protein, UniProt Q9UPY6 1-502)
chain: MPLVKRNIEPRHLCRGALPEGITSELECVTNSTLAAIIRQLSSLSKHAEDIFGELFNEANNFYIRANSLQDRIDRLAVKVTQLDSTVEEVSLQDINMKKAFKSSTVQDQQVVSKNSIPNPVADIYNQSDKPPPLNILTPYRDDKKDGLKFYTDPSYFFDLWKEKMLQDTEDKRKEKRRQKEQKRIDGTTREVKKVRKARNRRQEWNMMAYDKELRPDNRLSQSVYHGASSEGSLSPDTRSHASDVTDYSYPATPNHSLHPQPVTPSYAAGDVPPHGPASQAAEHEYRPPSASARHMALNRPQQPPPPPPPQAPEGSQASAPMAPADYGMLPAQIIEYYNPSGPPPPPPPPVIPSAQTAFVSPLQMPMQPPFPASASSTHAAPPHPPSTGLLVTAPPPPGPPPPPPGPPGPGSSLSSSPMHGPPVAEAKRQEPAQPPISDARSDLLAAIRMGIQLKKVQEQREQEAKREPVGNDVATILSRRIAVEYSDSDDDSEFDENDWSD
B2: phospho-mutant WAVE3 (W3-Y4F) (protein, UniProt Q9UPY6 1-502)
chain: B1 chain with Y151F, Y248F, Y337F, Y486F

Target: Y-box-binding protein-1 (YB1) (human (endogenous in MDA-MB-231)) (UniProt P67809)
Assay: co-IP; lysates of WAVE3-deficient MDA-MB-231 cells stably expressing the WAVE3 constructs; immunoprecipitated with anti-YB1 and blotted with anti-WAVE3, and immunoprecipitated with anti-WAVE3 and blotted with anti-YB1

Binder	binding
B1	binds
B2	no binding
